In PubChem BioAssay AID493014 (National Center for Advancing Translational Sciences (NCATS), 2011):
In all, about 340,000 compounds went through this assay and about 170 (0.05%) were called active. This list was built around the results that the source calls inconclusive (neither active nor inactive); the mix of calls is not that of the screen. The call rests on the fitted dose curve; in most records, active means well fitted inhibition curve with a large enough effect in the signal ratio, with a control signal flat (not every such curve was filed as active); inconclusive means small, poorly fitted or top-dose-only effect, or effect the other way, or a change in a side signal; inactive means flat fitted curve, though single readings scatter; the % refers to the signal ratio. Potencies beside an inconclusive call are fits to weak or partial responses and may not hold up.

assay: qHTS Assay to Find Inhibitors of Chronic Active B-Cell Receptor Signaling; settings: ABC-DLBCL IkBa-CBG/CBR reporter, luminescence ratio (green luciferase fused to IkBa over red control in TMD8 lymphoma cells), 4 h; activity change, negative = inhibition: at 46.1 µM (top of the series);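 on activity change, negative = inhibition: plate controls were basal doxycycline-induced cells for no effect and cells given 10 µM MG132 for full effect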
Summary of the method: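 Concentration-response series (up to 46 uM) were applied to TMD8 dual-reporter cells for 4 h at 37C with doxycycline. Green/red ratio, after filter-overlap correction, defined %Activity; red signal alone was normalised to basal cells and zero luminescence.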
Potency means the concentration at half of the fitted maximal effect.

SMILES | Potency | activity change, negative = inhibition
O=C(NN1C(=O)/C(=C/c2ccc(O)c([N+](=O)[O-])c2)SC1=S)c1ccccc1Cl | inconclusive: 7.08 µM [rising, full curve] | –
Oc1c(Cl)cc(Cl)cc1Sc1cc(Cl)cc(Cl)c1O | – | inconclusive: 2.59%
Cc1ccc(-c2noc(COc3ccccc3C)n2)cc1 | – | inconclusive: 16.4%
COC(=O)C(C(=O)Nc1ccccc1C)C1CCCC1 (configuration not stated) | – | inconclusive: 6.56%
CSc1ncc(Cl)c(C(=O)NCc2cccnc2)n1 | – | inactive
COc1ccc(Cl)cc1NC(=O)C(C)OC(=O)C1=NNC(=O)CC1 (configuration not stated) | – | inactive
COc1ccccc1C1CCN(C(=O)c2ccc(C(C)(C)C)cc2)CC1 | – | inconclusive: 5.54%
O=C(O)c1ccc2c(=O)n3c(nc2c1)/C(=C/c1cccc(Cl)c1Cl)CC3 | – | inconclusive: 3.81%
O=C1[C@H]2[C@@H](C(=O)N1c1cccc3ccccc13)C1(C(=O)c3ccccc3C1=O)N1CCC[C@@H]21 | inconclusive: 15.8 µM [falling, partial curve, poor fit] | –
S=C(NCc1ccco1)Nc1ccc(Br)cc1Cl | – | inconclusive: -0.718%
c1ccc(Oc2cc(-n3cncn3)ncn2)cc1 | – | inconclusive: 10.5%
CCN(CC)C(=O)COc1ccc(-c2nnc(Nc3ccc(OC)c(C(=O)NC)c3)c3ccccc23)cc1 | inconclusive: 11.2 µM [falling, partial curve] | –
CCOc1ccc(NC(=O)CCC(=O)c2ccc(OC)cc2)cc1 | – | inactive
C=C(C)C1CC=C(CN2CCC(C(=O)OCC)CC2)CC1 (configuration not stated) | – | inactive
COc1ccc(NC(=O)CCc2nc3ccccc3[nH]2)cc1 | inconclusive: 31.6 µM [falling, single point] | –
COc1ccc(OC)c(N/C=C/C(=O)c2ccccc2)c1 | – | inconclusive: 221%
CCOC(=O)c1c(-c2cccs2)csc1NC(=O)CSc1ncn[nH]1 | – | inactive
CCCCCCN(C(=O)CCCN1C(=O)NC(c2ccc(-c3ccccc3)cc2)C(C(=O)OCc2ccccc2)=C1C)C(C)C(=O)NCCCC (configuration not stated) | – | inactive
CCOC(=O)c1ccc(N=Cc2nc(-c3ccccc3)oc2OC(C)=O)cc1 | – | inconclusive: -5.95%
Cc1cccc(NC(=O)NC(=S)NC(=O)c2ccccc2)c1 | inconclusive: 16.4 µM [falling, partial curve, poor fit] | –
NC(=O)c1cc2ccccc2o/c1=N\NC(=O)c1ccccc1O | – | inconclusive: 8.7%
O=c1c(O)c(-c2ccccc2)oc2cc(O)cc(O)c12 | – | inconclusive: 4.18%
CCc1c(C)nc2ccc(Br)cc2c1Cl | – | inconclusive: 20.5%
Cc1nc(-c2cccc(NC(=O)c3ccc(-n4nccc4C)cc3)c2)cs1 | – | inconclusive: 12.6%
Cc1ccnn1CCC(=O)N1CCCC(N2CCN(c3cccc(Cl)c3)CC2)C1 (configuration not stated) | – | inconclusive: 6.87%
Cc1ccccc1-n1c(C)cc(/C=C(\C#N)C(=O)NCC2CCCO2)c1C (configuration not stated) | – | inconclusive: -0.152%

SMILES | Potency | activity change, negative = inhibition
O=C1CN(C(=O)N[C@@H](Cc2ccccc2)C(=O)N[C@@H](Cc2ccccc2)C(=O)O)c2ccccc2N1 | inconclusive: 22.4 µM [falling, single point] | –
NC(=O)C1CCCN(C(=O)CNC(=O)C23CC4CC(CC(C4)C2)C3)C1 (configuration not stated) | – | inactive
COc1cc(OC)cc(C(=O)N2CCN(c3ccccc3F)CC2)c1 | – | inconclusive: -7.38%
Oc1cc(Nc2ccccc2)cc2cccnc12 | inconclusive: 20.6 µM [falling, partial curve] | –
CCOP(=O)(OCC)C(C)(C)NC(=O)Nc1ccc(Cl)c(Cl)c1 | inconclusive: 11.2 µM [falling, partial curve, poor fit] | –
COc1cc(OC)c(OC)cc1CN1CCCC(C(=O)N2CCCC2)C1 (configuration not stated) | – | inactive
Cc1noc(C)c1COc1ccc(C(=O)NCc2cccs2)cc1 | – | inconclusive: -13.4%
CCCOc1cc(C)c(S(=O)(=O)NC2CC(C)(C)NC(C)(C)C2)cc1C | – | inconclusive: -12.9%
COc1cccc(CN2CCN(Cc3ccc(OC)c(OC)c3)CC2CCO)c1 (configuration not stated) | – | inconclusive: -5.38%
O=c1c(C=NCC2CCCO2)c(-c2ccccc2)[nH]n1-c1ccc([N+](=O)[O-])cc1 (configuration not stated) | – | inconclusive: 11.6%
CCN(CC)CCn1c2c(c(SCC(=O)Nc3nc(C)cs3)nc1=O)CCCC2 | – | inconclusive: 5.62%
S=C(NC1CCCCC1)N1CCN(c2ccccn2)CC1 | – | inconclusive: 0.14%
C=C(C)C(O)CC/C(C)=C/Cc1c(O)ccc(C(=O)/C=C/c2ccc(O)cc2)c1O (configuration not stated) | inconclusive: 23.1 µM [falling, single point] | –
Cc1ccccc1NC(=O)CCC(=O)N/N=C/c1ccncc1 | – | inactive
CCOCC(=O)Nc1cc(C(=O)Nc2ccc(F)cc2)ccc1Cl | inconclusive: 0.447 µM [falling, full curve, poor fit] | –
CCOc1ccc(N(CC(=O)NCCSCc2ccc(Cl)cc2)S(C)(=O)=O)cc1 | – | inactive
COC(=O)Cc1cc(OC)c(OC)cc1Cc1cc(OC)c(OC)cc1CC(=O)OC | – | inconclusive: -16.4%
O=C(c1ccccc1)N1CCN(CC2CC=CCC2)CC1 (configuration not stated) | – | inconclusive: 0.427%
Cc1nnc(Sc2cc(NCCCO)c([N+](=O)[O-])c3nonc23)s1 | inconclusive: 3.98 µM [cytotoxic, single point] | –
Cc1ccc(Nc2nc(-c3cccnc3)nc3ccccc23)cc1 | – | inconclusive: 3.24%
CCOC(=O)C/C(C)=N/NC(=O)C1CC1(c1ccccc1)c1ccccc1 (configuration not stated) | – | inconclusive: -5%
CC(C)c1ccc(S(=O)(=O)c2cc3cc(Br)ccc3oc2=O)cc1 | – | inconclusive: 12.3%
Cc1cccc(CCNC(=O)c2c[nH]c3ccc(S(=O)(=O)Nc4ccccc4F)cc3c2=O)c1 | – | inconclusive: 0.399%
COc1ccnc(N2CCN(c3ccccc3)CC2)c1C#N | – | inconclusive: 10.7%
O=C(NCCc1ccc(Cl)cc1)c1ccc2c(c1)N(Cc1cccc(Cl)c1)C(=O)c1ccccc1S2(=O)=O | – | inconclusive: 10.6%
Cc1ccc(-c2ccc(/C=N\n3cnnc3)o2)c(Br)c1 | – | inconclusive: -4.52%

Gathered by group: those above with a thiophene ring, fused or not (2)
SMILES | Potency | activity change, negative = inhibition
CCOC(=O)c1c(-c2cccs2)csc1NC(=O)CSc1ncn[nH]1 | – | inactive
Cc1noc(C)c1COc1ccc(C(=O)NCc2cccs2)cc1 | – | inconclusive: -13.4%

In another format: results already given.
SMILES	Potency	activity change, negative = inhibition
Cc1ccccc1-n1c(C)cc(/C=C(\C#N)C(=O)NCC2CCCO2)c1C (configuration not stated)	–	inconclusive: -0.152%
O=C1CN(C(=O)N[C@@H](Cc2ccccc2)C(=O)N[C@@H](Cc2ccccc2)C(=O)O)c2ccccc2N1	inconclusive: 22.4 µM [falling, single point]	–
